Results on one molecule are retold here after the supplement of paper PMC12819154, “High-throughput peptide-centric local stability assay extends protein–ligand identification to membrane proteins, tissues and bacteria” (Nature Structural & Molecular Biology, 2025).

Amino acid sequences for entries named in this document (tags omitted). A change or cut given only in a name is not applied to a line headed by its entry.
UniProt P0AEZ1: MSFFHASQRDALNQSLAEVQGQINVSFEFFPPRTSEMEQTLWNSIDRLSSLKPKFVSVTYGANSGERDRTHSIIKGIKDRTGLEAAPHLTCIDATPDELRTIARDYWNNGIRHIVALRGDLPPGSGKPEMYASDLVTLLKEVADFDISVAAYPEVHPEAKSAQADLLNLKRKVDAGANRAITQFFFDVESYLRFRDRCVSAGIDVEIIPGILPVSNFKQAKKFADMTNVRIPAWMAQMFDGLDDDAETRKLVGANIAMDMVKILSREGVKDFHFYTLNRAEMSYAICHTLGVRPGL

The structures appear in SMILES notation. Some of the results follow. Most values lie at the level of the controls, where differences are scatter.

Assay in all cases: log2 fold change of tryptic peptide abundance, ligand vs vehicle (limited proteolysis) (log2 ratio); higher = more trypsin-susceptible (destabilized)
In one experiment the target is T1, UniProt P0AES0.
T1 sequence (whole entry): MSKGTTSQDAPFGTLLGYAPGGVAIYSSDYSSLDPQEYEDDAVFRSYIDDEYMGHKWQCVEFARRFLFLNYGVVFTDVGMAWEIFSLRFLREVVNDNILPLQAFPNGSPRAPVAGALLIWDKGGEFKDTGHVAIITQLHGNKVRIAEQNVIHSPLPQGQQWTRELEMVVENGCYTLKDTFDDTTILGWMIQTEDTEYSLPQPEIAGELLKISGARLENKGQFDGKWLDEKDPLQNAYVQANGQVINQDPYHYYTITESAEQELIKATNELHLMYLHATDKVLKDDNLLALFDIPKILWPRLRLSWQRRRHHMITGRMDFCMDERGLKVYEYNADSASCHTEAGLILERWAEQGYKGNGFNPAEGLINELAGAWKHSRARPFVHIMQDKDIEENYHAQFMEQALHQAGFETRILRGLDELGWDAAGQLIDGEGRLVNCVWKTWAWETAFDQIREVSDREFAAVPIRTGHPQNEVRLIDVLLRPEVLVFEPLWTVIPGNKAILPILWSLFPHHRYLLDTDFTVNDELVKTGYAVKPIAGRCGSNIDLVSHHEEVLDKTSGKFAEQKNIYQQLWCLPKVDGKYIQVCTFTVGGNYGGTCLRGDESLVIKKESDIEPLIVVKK
The note with it: peptide sequence: ESDIEPLIVVK; peptide start residue: 608; ligand concentration: 10 uM; sample: E. coli crude lysate.

For a further experiment, the target named is T2, UniProt P0AEX5.
T2 sequence (whole entry): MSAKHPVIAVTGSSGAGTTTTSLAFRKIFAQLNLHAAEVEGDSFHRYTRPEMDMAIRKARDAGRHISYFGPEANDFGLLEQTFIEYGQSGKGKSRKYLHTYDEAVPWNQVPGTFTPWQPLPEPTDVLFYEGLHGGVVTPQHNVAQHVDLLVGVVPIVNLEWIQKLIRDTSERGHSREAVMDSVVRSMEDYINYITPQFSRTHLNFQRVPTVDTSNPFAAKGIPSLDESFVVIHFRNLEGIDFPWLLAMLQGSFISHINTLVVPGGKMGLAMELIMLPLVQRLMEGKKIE
The settings on record: peptide sequence: THLNFQR; peptide start residue: 201; ligand concentration: 10 uM; sample: E. coli crude lysate.

A further experiment addresses UniProt P0AEZ1. The settings on record: peptide sequence: DFHFYTLNR; peptide start residue: 271; ligand concentration: 10 uM; sample: E. coli crude lysate.

`CC1(C)S[C@@H]2[C@H](NC(=O)[C@H](N)c3ccccc3)C(=O)N2[C@H]1C(=O)O` [ampicillin]: the results for the log2 fold change with UniProt P0AES0, with UniProt P0AEX5 and in the experiment with UniProt P0AEZ1 were -0.252, -0.158 and 0.494, respectively.
